Measurements published in patent publication US10196389B2, “One class of pyrazolone compounds and use thereof” (SHANGHAI INSTITUTE OF MATERIA MEDICA, CHINESE ACADEMY OF …, priority 2014, dated 2019).
At least one compound was matched to its structure with a doubt left.

The chains behind the UniProt entries cited, without tags or fusion partners. Where a name states a change or a piece, a line headed by the entry shows the natural chain unless it says otherwise.
UniProt P54619: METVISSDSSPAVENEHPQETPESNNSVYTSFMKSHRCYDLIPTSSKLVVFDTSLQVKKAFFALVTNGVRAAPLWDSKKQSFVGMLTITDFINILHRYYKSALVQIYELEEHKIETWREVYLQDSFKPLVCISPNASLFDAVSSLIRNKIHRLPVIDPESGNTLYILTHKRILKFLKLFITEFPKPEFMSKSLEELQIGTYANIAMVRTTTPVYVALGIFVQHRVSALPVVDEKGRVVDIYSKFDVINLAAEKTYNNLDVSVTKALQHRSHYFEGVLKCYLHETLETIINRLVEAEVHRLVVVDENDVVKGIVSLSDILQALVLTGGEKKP
UniProt P54646: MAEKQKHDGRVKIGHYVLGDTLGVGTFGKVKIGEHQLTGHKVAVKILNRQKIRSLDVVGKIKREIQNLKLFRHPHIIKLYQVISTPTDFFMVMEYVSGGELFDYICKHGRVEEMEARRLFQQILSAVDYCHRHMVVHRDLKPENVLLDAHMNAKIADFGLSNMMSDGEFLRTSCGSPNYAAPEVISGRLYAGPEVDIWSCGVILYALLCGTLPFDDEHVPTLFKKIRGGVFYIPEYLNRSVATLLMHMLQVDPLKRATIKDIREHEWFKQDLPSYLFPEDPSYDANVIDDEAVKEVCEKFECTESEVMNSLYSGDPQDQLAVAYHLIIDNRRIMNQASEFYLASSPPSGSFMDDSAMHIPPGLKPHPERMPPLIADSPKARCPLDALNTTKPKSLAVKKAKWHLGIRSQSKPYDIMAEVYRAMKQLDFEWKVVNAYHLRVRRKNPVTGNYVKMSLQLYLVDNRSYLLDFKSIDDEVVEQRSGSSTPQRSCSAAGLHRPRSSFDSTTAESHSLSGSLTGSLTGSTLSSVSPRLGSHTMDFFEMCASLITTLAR
UniProt Q9Y478: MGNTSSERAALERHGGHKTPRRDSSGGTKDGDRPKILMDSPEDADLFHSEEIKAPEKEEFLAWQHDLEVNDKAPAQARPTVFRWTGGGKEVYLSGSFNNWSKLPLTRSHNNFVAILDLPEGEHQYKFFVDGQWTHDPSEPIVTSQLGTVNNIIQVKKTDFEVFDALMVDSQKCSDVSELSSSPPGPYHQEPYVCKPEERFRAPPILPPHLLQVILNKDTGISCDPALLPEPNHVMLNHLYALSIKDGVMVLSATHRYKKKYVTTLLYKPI

Target: T1, human AMPK (α2β1γ1) (Homo sapiens, UniProt P54619+P54646+Q9Y478)
T1 construct: made in house; host or cells: E. coli
Test: AMPK (α2β1γ1) activation at molecular level, HTRF KinEASE-STK S1 kinase assay
Format: biochemical
Conditions: activation of human AMPK (α2β1γ1), 4 μM ATP, 45 min at 30° C.
Procedure: 1. Purpose of the experiment: To screen small molecule compounds that can activate AMPK (α2β1γ1).
2. Principle of the experiment: The peptide as substrate contains sites which can be AMPK phosphorylated. One terminal of the peptide is linked with biotin in the reaction system (containing 2 mM MgCl2, 400 μM DTT, 160 nM substrate peptide, 4 μM ATP and 1.6 nM AMPK). In the biotinylated terminal, biotin can link with streptavidin-XL665 (acceptor) so as to complete the labeling. After 45 minute of phosphorylation reaction, the phosphorylated substrate (i.e., product) can bind to an antibody (labeled Donor) which recognizes the phosphorylating site, and the biotin on the other terminal can linked to streptavidin-XL665 (acceptor) so that the resulting FRET signal can be detected with PE Evision. The final AMPK activity is expressed as a ratio of the 665 nm wavelength reading to the 615 nm wavelength reading (665 nm/615 nm).
3. […]
2) The enzyme reaction system (2 mM MgCl2, […], 160 nM substrate peptide, 4 µM ATP, and 1.6 nM AMPK) was prepared by using a white shallow plate purchased from PE. […] Phosphorylated recognizing peptides of the antibody and the XL665 Detection buffer were added and the mixture was incubated at room temperature for 3 hours before the signals were detected.

Row | Structure (SMILES) | Activation ratio (Fold)
1 | COC(=O)c1ccc(CN2C=C3C(=O)N(c4ccc(F)c(C(F)(F)F)c4)N=C3CC2)cc1 [ZM-2, Methyl 4-((2-(4-fluoro-3-(trifluoromethyl)phenyl)-3-oxo-6,7-dihydro-2H-pyrazolo[4,3-c]pyridin-5(3H)-yl)methyl)benzoic acid] | 2.0
2 | COC(=O)c1ccc(CN2CCC3=NN(c4ccc(F)c(C(F)(F)F)c4)C(=O)C3C2)cc1 (centres unmarked) [ZM-3, Methyl 4-((2-(4-fluoro-3-(trifluoromethyl)phenyl)-3-oxo-3a,4,6,7-tetrahydro-2H-pyrazolo[4,3-c]pyridin-5(3H)-yl)methyl)benzoic acid] | 2.8
